# Like-named read-outs stand apart in the source and are kept apart here.
# Key:
# [1] = target: T1, IDE (Homo sapiens, UniProt P14735); test: Wet-lab test of inhibition of IDE; format: biochemical
# T1 sequence (P14735 1-1019): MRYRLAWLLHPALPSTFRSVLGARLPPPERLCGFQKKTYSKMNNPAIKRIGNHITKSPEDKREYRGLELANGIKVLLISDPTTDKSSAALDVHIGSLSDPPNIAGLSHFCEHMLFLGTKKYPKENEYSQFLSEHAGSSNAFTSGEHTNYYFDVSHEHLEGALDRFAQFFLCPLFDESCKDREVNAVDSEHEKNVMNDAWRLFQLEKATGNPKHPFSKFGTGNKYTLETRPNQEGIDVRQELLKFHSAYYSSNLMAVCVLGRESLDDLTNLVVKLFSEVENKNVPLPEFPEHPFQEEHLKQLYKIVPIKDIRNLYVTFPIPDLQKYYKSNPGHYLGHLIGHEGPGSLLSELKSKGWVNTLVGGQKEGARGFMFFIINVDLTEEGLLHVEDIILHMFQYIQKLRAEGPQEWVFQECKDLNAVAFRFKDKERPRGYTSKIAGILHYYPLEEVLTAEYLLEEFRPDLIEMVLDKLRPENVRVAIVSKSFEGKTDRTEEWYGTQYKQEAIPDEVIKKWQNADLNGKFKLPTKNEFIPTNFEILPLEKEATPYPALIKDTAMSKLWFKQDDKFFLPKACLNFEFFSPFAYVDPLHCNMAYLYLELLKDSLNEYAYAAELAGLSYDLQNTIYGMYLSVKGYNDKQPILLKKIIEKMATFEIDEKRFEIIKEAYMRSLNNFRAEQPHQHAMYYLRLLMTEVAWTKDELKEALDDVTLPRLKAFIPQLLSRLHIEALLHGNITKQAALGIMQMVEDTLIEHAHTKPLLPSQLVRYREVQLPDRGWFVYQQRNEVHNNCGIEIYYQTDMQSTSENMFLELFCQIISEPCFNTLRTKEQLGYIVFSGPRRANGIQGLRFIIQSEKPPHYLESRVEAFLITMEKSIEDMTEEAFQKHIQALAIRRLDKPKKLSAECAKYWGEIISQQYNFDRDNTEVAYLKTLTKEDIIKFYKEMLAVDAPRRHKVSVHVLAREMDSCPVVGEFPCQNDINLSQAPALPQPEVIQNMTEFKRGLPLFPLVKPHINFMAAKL
# [2] = target: T1, IDE; settings: read-out: IC50 Reported value, binding to IDE, ref not given; cited from earlier work
smiles,measurement,setting,value
CC[C@H](C)[C@H](N)C1=N[C@H](C(=O)N[C@@H](CC(C)C)C(=O)N[C@H](CCC(=O)O)C(=O)N[C@H](C(=O)N[C@H]2CCCCNC(=O)[C@H](CC(N)=O)NC(=O)[C@@H](CC(=O)O)NC(=O)[C@H](Cc3cnc[nH]3)NC(=O)[C@@H](Cc3ccccc3)NC(=O)[C@H]([C@@H](C)CC)NC(=O)[C@@H](CCCN)NC2=O)[C@@H](C)CC)CS1 [Bacitracin A],IC50,[1],79.2 µM
same,inhibition rate,[1]; binding to IDE,77.08%
same,IC50,[2],100 µM
